This test deals with Ramos. Kind of test: AlamarBlue viability assay. The conditions noted are these: Homo sapiens, 24 h, read-out: IC50 (Ramos). It counts as cell-based.

Where two headings read alike, the source gives them in different places.

The record followed here is PMC11167047 (Cell Death Discovery, 2024).

On to `CCc1cnn2c(NCc3ccc[n+]([O-])c3)cc(N3CCCC[C@H]3CCO)nc12` [dinaciclib], for which the IC50 (cytotoxicity) came out at 0.01 µM.
For `CC[C@H](CO)Nc1nc(NCc2ccccc2)c2ncn(C(C)C)c2n1` [roscovitine], the IC50 came to 12.6 µM.
